The text below walks through data of patent US20210079083A1 (INSTITUTE FOR BASIC SCIENCE, published 2021).

The target of one test is T1, mouse Ang2 (mAng2) (mouse, UniProt O35608 19-496, limits assumed).
T1 construct: Coated on the ELISA plate; also called recombinant mAng2
T1 sequence (looked up): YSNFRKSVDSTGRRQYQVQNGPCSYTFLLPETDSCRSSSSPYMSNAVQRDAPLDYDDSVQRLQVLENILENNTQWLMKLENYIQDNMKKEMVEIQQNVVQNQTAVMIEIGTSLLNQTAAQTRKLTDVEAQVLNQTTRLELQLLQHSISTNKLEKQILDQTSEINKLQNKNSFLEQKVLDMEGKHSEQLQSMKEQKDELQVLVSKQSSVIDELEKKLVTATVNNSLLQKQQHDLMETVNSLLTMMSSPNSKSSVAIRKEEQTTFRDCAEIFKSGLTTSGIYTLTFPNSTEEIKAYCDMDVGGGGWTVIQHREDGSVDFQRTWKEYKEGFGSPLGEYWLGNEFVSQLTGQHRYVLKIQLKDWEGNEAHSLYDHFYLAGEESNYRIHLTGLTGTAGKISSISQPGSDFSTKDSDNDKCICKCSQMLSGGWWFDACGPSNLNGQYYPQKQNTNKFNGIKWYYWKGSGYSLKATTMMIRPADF
The experiment in a line: ELISA: recombinant mAng2 coated on the plate, serially diluted antibody, anti-human IgG (Fab)-HRP, TMB, absorbance at 450 nm.

Test [1] addresses T2, Human Angiopoietin-2 full-length (hAng2) (human, UniProt O15123 19-496).
T2 construct: The cell assays used full-length hAng2 from R&D Systems; also called human Ang2; A2
T2 sequence: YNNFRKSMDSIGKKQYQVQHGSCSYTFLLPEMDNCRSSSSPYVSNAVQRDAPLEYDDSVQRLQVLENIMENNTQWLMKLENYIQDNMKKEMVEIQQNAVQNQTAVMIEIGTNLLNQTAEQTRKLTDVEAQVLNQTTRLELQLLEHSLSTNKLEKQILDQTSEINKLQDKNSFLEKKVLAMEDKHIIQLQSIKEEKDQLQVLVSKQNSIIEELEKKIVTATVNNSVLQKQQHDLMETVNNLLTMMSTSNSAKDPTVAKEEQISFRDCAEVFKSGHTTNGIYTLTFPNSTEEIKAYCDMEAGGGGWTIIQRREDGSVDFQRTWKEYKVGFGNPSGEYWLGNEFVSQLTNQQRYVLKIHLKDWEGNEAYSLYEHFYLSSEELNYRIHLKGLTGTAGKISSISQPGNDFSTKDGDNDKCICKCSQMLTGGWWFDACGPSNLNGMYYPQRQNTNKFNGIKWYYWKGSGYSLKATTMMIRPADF
In words: BLI (Octet).

These are yes or no findings as the source states them, for the method shown. Some binding calls cover weakened binding; strength is not graded here.

B1: humanized anti-Ang2 antibody 4B9H11 (antibody, V domains shown)
VH: QVQLVESGGGLVKPGGSLRLSCAASGFTFSDYYMYWIRQAPGKGLEWVSTISVGGSFTYYPDSVKGRFTISRDNAKNSLYLQMNSLRAEDTAVYYCARDWGLRPWFVYWGQGTLVTVSS
VL: DIQMTQSPSSLSASVGDRVTITCKASQDVSTAVAWYQQKPGKAPKLLIYWASTRHTGVPSRFSGSGSGTDFTLTISSLQPEDFATYYCQQHYSTPPTFGQGTKVEIK
notes: Full-length human IgG1
As to B1, the binding result in the test with mouse Ang2 (mAng2) was “binds”.

B2: 4B9H11G4 (human IgG4 class antibody of 4B9H11) (antibody, V domains shown)
VH: QVQLVESGGGLVKPGGSLRLSCAASGFTFSDYYMYWIRQAPGKGLEWVSTISVGGSFTYYPDSVKGRFTISRDNAKNSLYLQMNSLRAEDTAVYYCARDWGLRPWFVYWGQGTLVTVSS
VL: DIQMTQSPSSLSASVGDRVTITCKASQDVSTAVAWYQQKPGKAPKLLIYWASTRHTGVPSRFSGSGSGTDFTLTISSLQPEDFATYYCQQHYSTPPTFGQGTKVEIK
notes: The heavy chain constant region was replaced by an IgG4 class constant region; The sentence prints '4B9 heavy chain gene' where 4B9H11 is meant; also called 4B9H11-IgG4
With B2, the binding entry in test [1] is reported as “binds”.

B3: humanized anti-Ang2 antibody 2C8H11 (antibody, V domains shown)
VH: QVQLVQSGAEVKKPGASVKVSCKASGYTFTSYWMHWVRQAPGQGLEWMGMIDPSDSETRLNQKFKDRVTMTRDTSTSTVYMELSSLRSEDTAVYYCARRFYYGSDWYFDVWGQGTLVTVSS
VL: DIQLTQSPSFLSASVGDRVTITCKASQDVGTAVAWYQQKPGKAPKLLIYWASTRHTGVPSRFSGSGSGTEFTLTISSLQPEDFATYYCQQYSSYPLTFGQGTKVEIK
notes: Full-length human IgG1
Consider B3, for which the binding entry with mouse Ang2 (mAng2) is “binds”.
